Laboratory results taken from paper doi:10.1101/2025.04.30.651471.
No constants are given. Whether binding was seen depends on the method and setting. Binding seen in cells or lysates may run through a third protein. Some entries that bind do so weakly or less than the wild type.

By UniProt entry, the sequences of proteins in these tests, tags left out. Residues count along the entry.
UniProt P22888, residues 27-699: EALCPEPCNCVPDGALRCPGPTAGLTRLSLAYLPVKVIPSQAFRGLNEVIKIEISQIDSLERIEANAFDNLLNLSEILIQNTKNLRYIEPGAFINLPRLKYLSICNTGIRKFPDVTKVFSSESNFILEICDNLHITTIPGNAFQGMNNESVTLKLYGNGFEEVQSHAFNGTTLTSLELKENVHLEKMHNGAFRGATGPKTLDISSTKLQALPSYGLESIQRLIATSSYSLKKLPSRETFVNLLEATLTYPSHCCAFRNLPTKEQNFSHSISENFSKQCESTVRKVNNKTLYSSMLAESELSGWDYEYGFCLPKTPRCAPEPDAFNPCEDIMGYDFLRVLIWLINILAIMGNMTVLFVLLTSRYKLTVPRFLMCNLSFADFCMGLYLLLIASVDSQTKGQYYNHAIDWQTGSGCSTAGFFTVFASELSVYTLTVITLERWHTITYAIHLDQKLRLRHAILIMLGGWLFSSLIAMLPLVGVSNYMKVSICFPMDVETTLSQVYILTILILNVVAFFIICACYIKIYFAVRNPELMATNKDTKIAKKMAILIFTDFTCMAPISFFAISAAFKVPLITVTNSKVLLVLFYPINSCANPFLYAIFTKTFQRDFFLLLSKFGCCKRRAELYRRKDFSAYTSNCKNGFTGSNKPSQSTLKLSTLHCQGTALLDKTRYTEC
UniProt P63092: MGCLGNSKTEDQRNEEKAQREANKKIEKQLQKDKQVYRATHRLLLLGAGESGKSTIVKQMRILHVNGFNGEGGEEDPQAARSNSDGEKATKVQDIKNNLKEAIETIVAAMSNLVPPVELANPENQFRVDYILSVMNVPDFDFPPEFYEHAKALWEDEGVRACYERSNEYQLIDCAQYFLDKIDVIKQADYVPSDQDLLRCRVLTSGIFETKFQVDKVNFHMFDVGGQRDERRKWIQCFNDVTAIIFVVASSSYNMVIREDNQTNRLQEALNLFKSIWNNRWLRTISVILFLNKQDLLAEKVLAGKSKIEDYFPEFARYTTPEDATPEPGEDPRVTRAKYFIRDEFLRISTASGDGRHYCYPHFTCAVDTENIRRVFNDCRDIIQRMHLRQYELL

Target: LHR C-terminally fused to the LgBiT nanoluciferase portion (human) (UniProt P22888)
Test: split reporter

binding: binds
Substance: endogenous Gαs (from UniProt P63092 1-394)
